The source of these data is ChEMBL document CHEMBL2086222, “Bioassay-guided isolation of prenylated xanthones and polycyclic acylphloroglucinols from the leaves of Garcinia nujiangensis” (J Nat Prod, 2012).

For this assay, the system named is HepG2. The assay can be described thus: Cytotoxicity against human HepG2 cells assessed as reduction in cell viability after 72 hrs by MTT assay. The format is functional, cell-based. The settings on record: HepG2, 72 h. A general note: Tetrazolium dyes change colour on reduction, which living cells bring about.

On to `CC(=O)O[C@H]1C(=O)[C@@]2(C)[C@H]([C@H](OC(=O)c3ccccc3)[C@]3(O)C[C@H](OC(=O)[C@H](O)[C@@H](NC(=O)c4ccccc4)c4ccccc4)C(C)=C1C3(C)C)[C@]1(OC(C)=O)CO[C@@H]1C[C@@H]2O` [PACLITAXEL], for which the IC50 came out at 0.44 nM.

As usually defined, the IC50 is the concentration at which inhibition is half-maximal.
